Values from PubChem BioAssay AID1259425 (University of Nebraska Medical Center, 2018)

- Test: 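Find knockdowns that reproduce the gene expression pattern seen when KSR1 is lost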 (primary screen)
- Cells: HCT116 human colon cancer cells
- Knock-down reagent: siRNA pool against human genes, 50 nM siRNA
- Detection: 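After 50 nM siRNA pool, branched-DNA assay measures six marker transcripts per well, minus blank, normalised to the geometric mean of two housekeeping transcripts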
- Direction: BNIP3L mRNA: higher = more BNIP3L transcript after knockdown
Shown is an unselected part of about 14,000 deposited reagents. Not all columns of the deposit are shown. No sequences are given here. Not stated in the record: the time to read-out.

| gene | BNIP3L mRNA, set 1 |
| --- | --- |
| UTRN (utrophin) | 0.13 |
| TECR (trans-2,3-enoyl-CoA reductase) | 0.182 |
| ATG10 (autophagy related 10) | 0.149 |
| NLRC5 (NLR family CARD domain containing 5) | 0.161 |
| TANC2 | 0.132 |
| NQO2 (N-ribosyldihydronicotinamide:quinone dehydrogenase 2) | 0.0826 |
| GALR3 (galanin receptor 3) | 0.141 |
| RIC8B (RIC8 guanine nucleotide exchange factor B) | 0.122 |
| BRINP1 (BMP/retinoic acid inducible neural specific 1) | 0.0738 |
| PHB2 (prohibitin 2) | 0.0842 |
| S100A9 (S100 calcium binding protein A9) | 0.0402 |
| RPL17 (ribosomal protein L17) | 0.195 |
| MYNN (myoneurin) | 0.111 |
| QPRT (quinolinate phosphoribosyltransferase) | 0.109 |
| SUPT5H (SPT5 homolog, DSIF elongation factor subunit) | 0.184 |
| LHX2 (LIM homeobox 2) | 0.0849 |
| ACE2 (angiotensin converting enzyme 2) | 0.11 |
| COP1 (COP1 E3 ubiquitin ligase) | 0.133 |
| HECW2 | 0.157 |
| PTK7 (protein tyrosine kinase 7 (inactive)) | 0.104 |

3 entries already listed, arranged by “BNIP3L mRNA, set 1”, highest first:
| gene | BNIP3L mRNA, set 1 |
| --- | --- |
| PHB2 (prohibitin 2) | 0.0842 |
| BRINP1 (BMP/retinoic acid inducible neural specific 1) | 0.0738 |
| S100A9 (S100 calcium binding protein A9) | 0.0402 |
